# Assay results as given in PubChem BioAssay AID720504 (National Center for Advancing Translational Sciences (NCATS), 2013).
# Protein sequences, listed by entry. Tags and fused reporters are not part of them.
# UniProt P53350, whole entry, looked up: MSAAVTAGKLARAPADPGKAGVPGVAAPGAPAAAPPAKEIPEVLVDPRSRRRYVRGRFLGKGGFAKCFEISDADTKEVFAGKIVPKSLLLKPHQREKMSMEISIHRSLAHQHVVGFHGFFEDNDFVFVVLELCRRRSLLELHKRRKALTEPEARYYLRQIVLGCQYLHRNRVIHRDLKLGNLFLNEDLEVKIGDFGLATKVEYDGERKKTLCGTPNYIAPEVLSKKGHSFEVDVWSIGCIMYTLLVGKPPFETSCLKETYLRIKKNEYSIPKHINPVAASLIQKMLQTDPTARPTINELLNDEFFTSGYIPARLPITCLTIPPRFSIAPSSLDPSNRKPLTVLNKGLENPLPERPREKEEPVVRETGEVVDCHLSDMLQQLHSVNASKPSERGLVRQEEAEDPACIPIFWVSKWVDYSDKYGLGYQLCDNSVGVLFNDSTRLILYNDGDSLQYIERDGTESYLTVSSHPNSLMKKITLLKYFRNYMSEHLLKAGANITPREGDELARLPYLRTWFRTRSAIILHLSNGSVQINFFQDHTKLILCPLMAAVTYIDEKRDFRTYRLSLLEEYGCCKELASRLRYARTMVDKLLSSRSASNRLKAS
# Screen size: about 360,000 compounds; about 10,000 (2.8%) were called active. This list was built around the results that the source calls inconclusive (neither active nor inactive); the mix of calls is not that of the screen. The call rests on the fitted dose curve; in most records, active means well fitted inhibition curve with a large enough effect; inconclusive means small, poorly fitted or top-dose-only effect; inactive means flat fitted curve, though single readings scatter. Potencies beside an inconclusive call are fits to weak or partial responses and may not hold up.
# Target: Serine/threonine-protein kinase PLK1 (Homo sapiens) (UniProt P53350)
# Experiment: qHTS for Inhibitors of PLK1-PDB (polo-like kinase 1 - polo-box domain): Primary Screen; further: nearly all actives have a fitted effect of over 65% in size; on max response, negative = inhibition: series mostly up to about 57 µM
# Details: Plk1 PBD binding of FITC phosphopeptide, fluorescence polarization
# On the % scale 0 is the no-effect control and ±100 the full control effect; potency means the concentration at half of the fitted maximal effect.
Structure (SMILES),"max response, negative = inhibition",Potency
Cn1cc(/C=N/NC(=O)COc2ccccc2[N+](=O)[O-])c2ccccc21,inactive: -7.81%,–
COc1cccc(CN2CC(C(=O)NCCN3CCOCC3)CCC2=O)c1 (stereo unspecified),–,"inconclusive: 2.67 µM [inhibitor, partial curve]"
CC(C)(C)CC(=O)OCC(=O)Nc1cc(C(C)(C)C)nn1-c1ccccc1,–,active: 23.8 µM
CC(C)OC(=O)c1c(NC(=O)Cn2cnc([N+](=O)[O-])n2)sc2c1CCCC2,–,"inconclusive: 26.7 µM [inhibitor, partial curve]"
S=c1[nH]nc2ccc3ccccc3n12,–,"inconclusive: 29.9 µM [inhibitor, single point]"
COc1cc(/C=C(\C#N)c2nc3ccccc3s2)cc([N+](=O)[O-])c1O,–,active: 21.2 µM
Cc1ccc(NC(=S)NC2CCCCC2)cc1S(=O)(=O)N(C)C,inconclusive: -33.4% [inhibitor],–
COc1cccc(CNc2nc3nc(C)c(Cl)c(=O)n3[nH]2)c1,inactive: 0.993%,–
O=C(O)CSc1nnnn1C1CCCCC1,–,active: 15 µM
O=C(CSc1ncn[nH]1)c1ccc2c(c1)OCCO2,–,"inconclusive: 29.9 µM [inhibitor, single point]"
Cc1ccc(C)c(SCC(=O)Nc2cccc(S(=O)(=O)N3CCOCC3)c2)c1,–,"inconclusive: 29.9 µM [inhibitor, single point]"
NNC(=O)C(Cc1ccccc1)NC(=O)OCc1ccccc1 (stereo unspecified),–,"inconclusive: 21.2 µM [inhibitor, partial curve]"
CN(c1ccccc1)S(=O)(=O)c1cccc(C(=O)NCCc2ccc(O)c(O)c2)c1,inactive: -8.11%,–
CN1CCc2cccc3c2[C@H]1Cc1ccc(O)c(O)c1-3,–,active: 37.7 µM
Cc1ccc2cc(C)c3nnc(SCC(=O)Nc4nc5c(s4)CCCC5)n3c2c1C,–,"inconclusive: 67 µM [inhibitor, partial curve]"
CC1(C(=O)Nc2ccc(F)cc2F)CCN1C(=O)CCC1CCCC1 (stereo unspecified),inactive: -2.12%,–
CCSc1nnc(NC(=O)C2CCCN(S(=O)(=O)c3cnc[nH]3)C2)s1 (stereo unspecified),–,active: 29.9 µM
CC(=O)c1c(C)[nH]c(C(=O)N2CCCCCC2)c1C,–,active: 2.67 µM
COCCN(C(=O)CSc1ccc2c(c1)OCCO2)c1c(N)n(CC(C)C)c(=O)[nH]c1=O,–,"inconclusive: 21.2 µM [inhibitor, partial curve]"
CCC(C)(C)NC(=O)C(c1cccc(OC)c1OC)N(CC(C)C)C(=O)CCC(=O)Nc1cc(C)on1 (stereo unspecified),–,active: 10.6 µM
CCc1c(C)sc(NC(=O)c2cccs2)c1C(N)=O,–,active: 4.74 µM
CCc1ccc(/C=N/NC(=S)NCCc2ccccc2)cc1,inactive: -24.9%,–
CSc1ccccc1NC(=O)Nc1ccccc1Cl,–,"inconclusive: 8.44 µM [inhibitor, partial curve]"
O=C(CCl)Nc1cc(SCC(O)CO)cc([N+](=O)[O-])c1 (stereo unspecified),–,"inconclusive: 23.8 µM [inhibitor, partial curve]"

# Quoted at random: three entries already listed
Structure (SMILES),"max response, negative = inhibition",Potency
O=C(CCl)Nc1cc(SCC(O)CO)cc([N+](=O)[O-])c1 (stereo unspecified),–,"inconclusive: 23.8 µM [inhibitor, partial curve]"
CC(=O)c1c(C)[nH]c(C(=O)N2CCCCCC2)c1C,–,active: 2.67 µM
COCCN(C(=O)CSc1ccc2c(c1)OCCO2)c1c(N)n(CC(C)C)c(=O)[nH]c1=O,–,"inconclusive: 21.2 µM [inhibitor, partial curve]"

# Following part:

Structure (SMILES),"max response, negative = inhibition",Potency
COc1ccc2oc(C(=O)NCC(c3ccco3)N(C)C)c(C)c2c1 (stereo unspecified),inactive: -5.16%,–
Cc1[nH]c(C)c(S(=O)(=O)Nc2ccc(OC(F)(F)F)cc2)c1C(=O)N1CCCCC1,inactive: -13.2%,–
Cc1[nH]c2ccc(C(=O)NCCN3CCOCC3)cc2c1C,inactive: -5.74%,–
CCC1=NN2C(=N)/C(=C\c3ccc(OCCOc4ccc(NC(C)=O)cc4)cc3)C(=O)N=C2S1,–,"inconclusive: 26.7 µM [inhibitor, single point]"
CCOC(=O)N1CCN(CCC(=O)c2ccc(Cl)cc2)CC1,–,active: 11.9 µM
O=C(NCCN1CCCCCC1)C1CCC(CNS(=O)(=O)c2cccc3cccnc23)CC1 (stereo unspecified),–,"inconclusive: 26.7 µM [inhibitor, partial curve]"
Cc1c(CC(=O)N2CCN(C(=O)C3COc4ccccc4O3)CC2)c(=O)oc2c(O)c(O)ccc12 (stereo unspecified),–,"inconclusive: 29.9 µM [inhibitor, partial curve]"
Cc1csc(SC(C)C(=O)Nc2ccc(Cl)cn2)n1 (stereo unspecified),–,active: 26.7 µM
COc1cc(OC)c(OC)cc1/C=N/n1c(-c2n[nH]c3c2CCC3)n[nH]c1=S,–,"inconclusive: 29.9 µM [inhibitor, partial curve]"
CCN(CC)Cc1c(O)c(Cl)cc2c3c(c(=O)oc12)CCCC3,–,"inconclusive: 23.8 µM [inhibitor, single point]"
O=C(C[n+]1ccccc1)N/N=C/c1ccco1,–,"inconclusive: 37.7 µM [inhibitor, single point]"
CCCCCCCCc1nc(=S)[nH][nH]1,–,"inconclusive: 9.47 µM [inhibitor, partial curve]"
CCc1cccc2c(-c3csc(=NC)n3C)c[nH]c12,–,"inconclusive: 29.9 µM [inhibitor, single point]"
CCn1c(C)[n+](CC)c2ccc(S(=O)(=O)N(C)C)cc21,inactive: -17.6%,–
O=C(CSc1cccc2cccc(Cl)c12)OCC(=O)N1CCN(C(=O)c2ccco2)CC1,–,"inconclusive: 7.52 µM [inhibitor, full curve]"
CCCOc1ccc(C(=O)Nc2ccccc2[N+](=O)[O-])cc1,–,"inconclusive: 29.9 µM [inhibitor, single point]"
CCn1nc(C)cc1-c1nnc(Sc2ncc([N+](=O)[O-])s2)n1C,–,"inconclusive: 37.7 µM [inhibitor, partial curve, poor fit]"
COc1cc(/C=C/C(=O)O)cc(S(=O)(=O)N2CCCc3ccccc32)c1OC,–,active: 26.7 µM
COc1ccccc1C(=O)C1CCCN(C(=O)CSc2ccccn2)C1 (stereo unspecified),inconclusive: -33.7% [inhibitor],–
Cc1noc(NS(=O)(=O)c2ccc(NC(=O)Nc3ccc(Cl)c(Cl)c3)cc2)c1C,–,"inconclusive: 33.6 µM [inhibitor, single point]"
Nc1ccc2nc(SCC(=O)N3CCOCC3)sc2c1,–,"inconclusive: 18.9 µM [inhibitor, single point]"
CCOc1ccc(NC(=O)CC2C(=O)N(c3cccc(OC)c3)C(=O)N2CCOC)cc1 (stereo unspecified),–,active: 29.9 µM
COc1ccc(CNCCS(=O)(=O)NC2CCCC2)cc1,–,"inconclusive: 18.9 µM [inhibitor, single point]"
Oc1ccc(Nc2ccc3ccccc3c2)cc1,–,"inconclusive: 26.7 µM [inhibitor, partial curve]"

Structure (SMILES),"max response, negative = inhibition",Potency
COC(C(=O)Nc1ccnn1C1CCN(C(=O)c2ccc(C)cc2)CC1)c1ccccc1 (stereo unspecified),–,"inconclusive: 29.9 µM [inhibitor, single point]"
O=S(=O)(NCCc1ccccc1)c1ccc(Br)cc1,inactive: 1.96%,–
COc1ccc(Oc2c(C)nc(SCC(=O)c3ccc(Cl)cc3)[nH]c2=O)cc1,–,"inconclusive: 21.2 µM [inhibitor, single point]"
COc1ccc(C(=O)Nc2c(Cl)cc(Cl)cc2C(=O)N2CCC(C)CC2)cc1,inactive: -14.4%,–
Cc1ccc(/C=C/c2nc3sc(C(=O)O)c(C)c3c(=O)[nH]2)cc1[N+](=O)[O-],–,"inconclusive: 26.7 µM [inhibitor, single point]"
C#CCN(C[C@@H]1[C@@H](OC(=O)NC2CC2)[C@@H](OC(=O)NC2CC2)Cn2c(=O)n(CCCCCC)c(=O)n21)S(=O)(=O)c1ccc(C)cc1,–,"inconclusive: 29.9 µM [inhibitor, partial curve]"
Cc1cc(C)c(C)c(S(=O)(=O)N2C(=S)NC(=O)C2C(C)C)c1C (stereo unspecified),–,active: 26.7 µM
COc1ccc(C(C(=O)Nc2ccc(F)cc2)N2CCN(CC(=O)N3CCCC3)CC2)cc1 (stereo unspecified),inactive: -12.5%,–
CCOc1cc(/C=C2\C(=O)ON=C2C)ccc1OCc1ccccc1,–,active: 1.5 µM
O=C1NN(c2ccccc2)C(=O)/C1=C/c1coc2ccccc2c1=O,–,"inconclusive: 13.4 µM [inhibitor, partial curve]"
CCOC(=O)C1CCCN(S(=O)(=O)c2ccc3ccccc3c2)C1 (stereo unspecified),inactive: -1.09%,–
O=C(Nc1ccc(C(F)(F)F)cc1)C1CCCCN1S(=O)(=O)c1ccccc1 (stereo unspecified),inactive: -10.8%,–
O=C1Nc2ccccc2/C1=N\c1sc2c(c1C(=O)Nc1ccccc1)CCCC2,–,"inconclusive: 29.9 µM [inhibitor, partial curve]"
CC(C)OC(=O)CSc1nc2c(c(C3CC=CCC3)c1C#N)CCC2 (stereo unspecified),–,"inconclusive: 37.7 µM [inhibitor, single point]"
Cc1c(NC(=S)Nc2ccccc2C(F)(F)F)cccc1[N+](=O)[O-],–,"inconclusive: 18.9 µM [inhibitor, partial curve]"
CC1CN(C(=S)Nc2cccc(Cl)c2Cl)CC(C)O1 (stereo unspecified),inactive: -5.93%,–
O=C(O)CN1C(=O)/C(=C\c2cc(Br)ccc2OCc2ccc(F)cc2)SC1=S,–,active: 21.2 µM
CN(CC(=O)Nc1ccccc1C(F)(F)F)Cc1c(O)ccc2ccccc12,–,active: 11.9 µM
CO[C@@]1(NC(=O)CSCC#N)C(=O)N2C(C(=O)O)=C(CSc3nnnn3C)CS[C@@H]21,inconclusive: -38% [inhibitor],–
COC(=O)[C@]1(CC(C)C)N[C@H](c2ccc(-c3ccc(C(C)=O)cc3)cc2)[C@@H]2C(=O)N(C)C(=O)[C@@H]21,inactive: 1.09%,–
O=C(COC(=O)c1cc(Cl)ccc1Cl)Nc1ccc2[nH]c(=O)[nH]c2c1,inactive: -3.98%,–
CC(=O)c1cccc(N=c2scc(-c3ccc(S(=O)(=O)N4CCOCC4)cc3)n2CCO)c1,inconclusive: -32.9% [inhibitor],–
Cc1ccc(-n2cc(CN(C)Cc3nccn3C)c(-c3ccc(F)cc3)n2)cc1,–,"inconclusive: 16.8 µM [inhibitor, partial curve]"
